{
  "source": "patent US20150335679A1",
  "about": "“Methods and Compositions for Treating Malignancies with Dendritic Cells” (Kiromic, LLC, priority 2014, published 2015)",
  "key": {"monocyte-derived DC": {"test_system": "monocyte-derived DC", "assay": "DC phenotype flow-cytometry after maturation/peptide pulse", "format": "cell-based, human", "conditions": "DC after maturation cocktail and 20 μg/mL peptide pulse; FIG. 2"}, "HLA-A1 restricted CTL": {"test_system": "HLA-A1 restricted CTL", "conditions": "reference [27]; cited from earlier work"}},
  "note": "Part of at least one peptide drawing is inferred or uncertain, most often the ends. Where no end group is shown, it is not given here.",
  "data": [
    {"sequence": "ILDSSEEDK [SP17(103-111)]", "values": [
      {"measurement": "expression of maturation markers CD80, CD83, CD86, CD58 and HLA-DR", "setting": "monocyte-derived DC", "result": "up-regulation"},
      {"measurement": "expression of the monocyte marker CD14", "setting": "monocyte-derived DC", "result": "reduced"},
      {"measurement": "HLA-A1 restricted CTL recognition and activation", "setting": "HLA-A1 restricted CTL", "result": "capable of inducing HLA-A1 restricted CTL recognition and activation"}
    ]}
  ]
}
